{"source": "paper PMC3428313", "key": {"[1]": {"tested_on": "C/EBPbeta isoform LAP", "experiment": "EMSA supershift", "conditions": "anti-C/EBPbeta supershift or abrogation; 20 mM HEPES pH 8.0, 1 mM MgCl2, 60 mM KCl, 0.1 mM EDTA, 15% glycerol, 1 ug poly dI-dC, 8 ug nuclear extract; 30 min room temperature then 15 min 4 C; gel at 4 C; protein in a lysate after overexpression; label: 32P"}, "[2]": {"tested_on": "C/EBPbeta isoform LIP (Flag-LIP)", "experiment": "EMSA supershift", "conditions": "anti-FLAG supershift; 20 mM HEPES pH 8.0, 1 mM MgCl2, 60 mM KCl, 0.1 mM EDTA, 15% glycerol, 1 ug poly dI-dC, 8 ug nuclear extract; 30 min room temperature then 15 min 4 C; gel at 4 C; protein in a lysate after overexpression; protein details: FLAG; label: 32P"}}, "note": "Construct, isoform or probe ends are uncertain for at least one entry. At least one result comes from cells or an extract, where the contact may be indirect.", "data": [{"sequence": "TGCAGATTGCGCAATCTGCA (double strand) [canonical C/EBP]", "values": [{"measurement": "binding result", "setting": "[1]", "result": "binds"}, {"measurement": "binding result", "setting": "[2]", "result": "binds"}]}]}
